Test results from PubChem BioAssay AID1347131 (National Center for Advancing Translational Sciences (NCATS), 2019).
Among all 410,000 compounds or so, about 2,000 (0.49%) were called active. The shares of active, inactive and inconclusive entries below differ from those in the screen. Calls come from the whole dose curve; tested in HEK293 reporter line. A potency beside an inconclusive call is a rough fit, not a confirmed value.

assay: qHTS Assay for Foot and Mouth Disease Virus Antivirals: Primary Screen against the MLPCN compound library; settings: FMDV antiviral cell-based qHTS; activity, negative = inhibition: at 57.9 µM (top of the series); note: nearly all actives have a fitted effect of over 55% in size
Potency is the fitted concentration of half-maximal effect.

Row | SMILES | Potency | activity, negative = inhibition
1 | Cc1sc2nc[nH]c(=O)c2c1-c1ccc(Cl)cc1 | inconclusive: 22.4 µM [inhibitor, partial curve, poor fit] | –
2 | CC(C)CC(=O)/C(=C\c1ccc(Cl)cc1Cl)n1cncn1 | inconclusive: 7.94 µM [inhibitor, full curve, poor fit] | –
3 | Cc1ccc(NC(=S)Nc2ccc3[nH]c(=O)[nH]c3c2)cc1 | – | inactive: -37.6%
4 | COc1cccc(C(=O)Nc2ccc(-c3cc(C(F)(F)F)nn3-c3ccccc3)cc2)c1 | inconclusive: 12.6 µM [inhibitor, partial curve, poor fit] | –
5 | C(=Cc1c[nH]c2ccccc12)c1nccc2ccccc12 | inconclusive: 22.4 µM [inhibitor, single point] | –
6 | CCN1/C(=C\c2ccc3ccccc3[n+]2CC)Sc2cc(C)ccc21 | inconclusive: 35.5 µM [inhibitor, partial curve, poor fit] | –
7 | C=CCN(c1ccccc1)S(=O)(=O)c1cccc(C(=O)Nc2ccc(N3CCOCC3)cc2)c1 | inconclusive: 22.4 µM [inhibitor, partial curve, poor fit] | –
8 | COc1cc(/C=N/N=C(N)N)ccc1OCc1ccc(Cl)cc1 | inconclusive: 39.8 µM [inhibitor, single point] | –
9 | CSc1ncnc2c1ncn2CCCNCC(c1ccccc1)c1ccccc1 | inconclusive: 3.16 µM [inhibitor, full curve] | –
10 | CCOC(=O)Cn1c(CN(C)Cc2ccccc2)nc2c1c(=O)n(C)c(=O)n2C | inconclusive: 14.1 µM [inhibitor, partial curve, poor fit] | –
11 | O=C(Nc1ccccc1)c1nc[nH]c1C(=O)NCCCNC(=O)c1[nH]cnc1C(=O)Nc1ccccc1 | inconclusive: 4.47 µM [inhibitor, full curve] | –
12 | O=S(=O)(CCSc1nc2ccccc2o1)c1nc2ccccc2s1 | inconclusive: 15.8 µM [inhibitor, partial curve, poor fit] | –
13 | COc1ccccc1/C=N/NC(=O)c1nnn(-c2nonc2N)c1CN(C)c1ccccc1 | inconclusive: 1.12 µM [inhibitor, full curve] | –
14 | O=C(CSc1nc2ccc(NC(=O)CSc3nnnn3Cc3ccccc3)cc2s1)Nc1ccccc1 | inconclusive: 1.78 µM [inhibitor, full curve] | –
15 | CS(=O)(=O)c1ccc2nc(NC(=O)CN3CCN(Cc4ccccc4)CC3)sc2c1 | inconclusive: 39.8 µM [inhibitor, partial curve, poor fit] | –
16 | CC(Sc1nc(C(F)(F)F)nc2ccccc12)C(=O)NC1CCCC1 (configuration not stated) | – | inactive: -27.5%
17 | Cc1cc(=O)[nH]c(N/N=C/C2=C(N3CCOCC3)C(=C\c3ccc(Cl)cc3)/CC2)n1 | – | inactive: -36.7%

Entries of single compounds, quoted from the list.
`CCN1/C(=C\c2ccc3ccccc3[n+]2CC)Sc2cc(C)ccc21` is listed with Potency: inconclusive: 35.5 µM [inhibitor, partial curve, poor fit]
`CC(Sc1nc(C(F)(F)F)nc2ccccc12)C(=O)NC1CCCC1` (configuration not stated) is listed with activity, negative = inhibition: inactive: -27.5%
